For this test, the target named is Glycogen synthase kinase 3β (GSK-3β), wild type (UniProt P49841). Put plainly: co-IP; HeLa cells transfected with GSK-3β WT plasmid, harvested after 24 h; clear lysate incubated overnight at 4°C with rabbit anti-GSK-3β antibody (or normal goat IgG), protein A-sepharose beads, five washes with lysis buffer; immunoblot with antibody to PMS2. A general note: A western blot detects proteins with antibodies after separation by electrophoresis.

The chains behind the UniProt entries cited, without tags or fusion partners.
UniProt P49841: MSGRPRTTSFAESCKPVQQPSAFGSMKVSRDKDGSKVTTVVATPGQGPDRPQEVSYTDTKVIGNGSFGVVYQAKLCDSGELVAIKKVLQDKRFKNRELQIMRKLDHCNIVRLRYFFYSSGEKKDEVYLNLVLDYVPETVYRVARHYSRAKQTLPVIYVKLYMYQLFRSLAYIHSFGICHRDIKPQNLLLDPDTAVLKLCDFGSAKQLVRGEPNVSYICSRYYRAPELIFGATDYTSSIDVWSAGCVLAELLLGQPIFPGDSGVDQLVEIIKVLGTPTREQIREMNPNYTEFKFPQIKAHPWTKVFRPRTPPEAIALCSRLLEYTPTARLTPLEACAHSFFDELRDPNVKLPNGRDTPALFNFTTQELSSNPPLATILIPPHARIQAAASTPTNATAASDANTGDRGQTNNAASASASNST

Results are given in words; binding and its absence hold for the method and conditions named. Binding seen in cells or lysates may run through a third protein. Some entries that bind do so weakly or less than the wild type.

B1: Mismatch repair protein PMS2 (protein, UniProt P54278 1-862)
chain: MERAESSSTEPAKAIKPIDRKSVHQICSGQVVLSLSTAVKELVENSLDAGATNIDLKLKDYGVDLIEVSDNGCGVEEENFEGLTLKHHTSKIQEFADLTQVETFGFRGEALSSLCALSDVTISTCHASAKVGTRLMFDHNGKIIQKTPYPRPRGTTVSVQQLFSTLPVRHKEFQRNIKKEYAKMVQVLHAYCIISAGIRVSCTNQLGQGKRQPVVCTGGSPSIKENIGSVFGQKQLQSLIPFVQLPPSDSVCEEYGLSCSDALHNLFYISGFISQCTHGVGRSSTDRQFFFINRRPCDPAKVCRLVNEVYHMYNRHQYPFVVLNISVDSECVDINVTPDKRQILLQEEKLLLAVLKTSLIGMFDSDVNKLNVSQQPLLDVEGNLIKMHAADLEKPMVEKQDQSPSLRTGEEKKDVSISRLREAFSLRHTTENKPHSPKTPEPRRSPLGQKRGMLSSSTSGAISDKGVLRPQKEAVSSSHGPSDPTDRAEVEKDSGHGSTSVDSEGFSIPDTGSHCSSEYAASSPGDRGSQEHVDSQEKAPKTDDSFSDVDCHSNQEDTGCKFRVLPQPTNLATPNTKRFKKEEILSSSDICQKLVNTQDMSASQVDVAVKINKKVVPLDFSMSSLAKRIKQLHHEAQQSEGEQNYRKFRAKICPGENQAAEDELRKEISKTMFAEMEIIGQFNLGFIITKLNEDIFIVDQHATDEKYNFEMLQQHTVLQGQRLIAPQTLNLTAVNEAVLIENLEIFRKNGFDFVIDENAPVTERAKLISLPTSKNWTFGPQDVDELIFMLSDSPGVMCRPSRVKQMFASRACRKSVMIGTALNTSEMKKLITHMGEMDHPWNCPHGRPTMRHIANLGVISQN
With B1, the binding entry was “binds”.

Values taken from publication PMC2843672.
